Measurements published in patent US20250034601A1, “HETERODIMERIC BENZALDEHYDE SYNTHASE, METHODS OF PRODUCING, AND USES THEREOF” (Purdue Research Foundation, priority 2021, published 2025).
Results are given in words; binding and its absence hold for the method and conditions named. In cells and extracts the contact can be indirect. Some results given as binding are weak or reduced against the parent protein; the word gives no strength. Where a sequence is shown, tags or fusion partners need not be part of it.

T1: PhBSβ-His (C-terminal His-tagged beta subunit of Petunia hybrida benzaldehyde synthase) (Petunia hybrida)
T1 sequence: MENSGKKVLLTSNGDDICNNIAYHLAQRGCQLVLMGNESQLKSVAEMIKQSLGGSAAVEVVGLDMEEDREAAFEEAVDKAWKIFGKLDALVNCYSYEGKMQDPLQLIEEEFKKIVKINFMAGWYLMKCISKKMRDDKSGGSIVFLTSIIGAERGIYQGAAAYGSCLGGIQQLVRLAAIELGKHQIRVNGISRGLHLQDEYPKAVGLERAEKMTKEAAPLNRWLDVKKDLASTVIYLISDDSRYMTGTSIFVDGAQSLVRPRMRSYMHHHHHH

T2: MBP-PhBSα (maltose binding protein-tagged alpha subunit of Petunia hybrida benzaldehyde synthase) (Petunia hybrida)
T2 sequence: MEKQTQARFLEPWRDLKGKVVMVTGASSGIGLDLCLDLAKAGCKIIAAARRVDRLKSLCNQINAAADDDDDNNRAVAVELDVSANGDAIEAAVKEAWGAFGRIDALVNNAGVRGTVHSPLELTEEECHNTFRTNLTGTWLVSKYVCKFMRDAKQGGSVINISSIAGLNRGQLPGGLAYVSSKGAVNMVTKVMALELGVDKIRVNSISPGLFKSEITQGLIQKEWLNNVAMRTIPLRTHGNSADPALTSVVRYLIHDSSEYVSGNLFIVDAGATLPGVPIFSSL


Legend:
[1] = target: T1, PhBSβ-His (C-terminal His-tagged beta subunit of Petunia hybrida benzaldehyde synthase) (Petunia hybrida); assay: pull-down on Ni-NTA agarose after Factor Xa digestion of MBP-PhBSα, SDS-PAGE and BS activity
[2] = target: T2, MBP-PhBSα (maltose binding protein-tagged alpha subunit of Petunia hybrida benzaldehyde synthase) (Petunia hybrida); assay: pull-down on amylose resin from mixed bacterial lysates, SDS-PAGE

binding [1] | binding [2] | Binder
binds | – | PhBSα, tag-free (MBP removed from MBP-PhBSα by Factor Xa protease) (enzyme) MEKQTQARFLEPWRDLKGKVVMVTGASSGIGLDLCLDLAKAGCKIIAAARRVDRLKSLCNQINAAADDDDDNNRAVAVELDVSANGDAIEAAVKEAWGAFGRIDALVNNAGVRGTVHSPLELTEEECHNTFRTNLTGTWLVSKYVCKFMRDAKQGGSVINISSIAGLNRGQLPGGLAYVSSKGAVNMVTKVMALELGVDKIRVNSISPGLFKSEITQGLIQKEWLNNVAMRTIPLRTHGNSADPALTSVVRYLIHDSSEYVSGNLFIVDAGATLPGVPIFSSL
– | binds | PhBSβ-His (C-terminal His-tagged beta subunit of Petunia hybrida benzaldehyde synthase) (enzyme) MENSGKKVLLTSNGDDICNNIAYHLAQRGCQLVLMGNESQLKSVAEMIKQSLGGSAAVEVVGLDMEEDREAAFEEAVDKAWKIFGKLDALVNCYSYEGKMQDPLQLIEEEFKKIVKINFMAGWYLMKCISKKMRDDKSGGSIVFLTSIIGAERGIYQGAAAYGSCLGGIQQLVRLAAIELGKHQIRVNGISRGLHLQDEYPKAVGLERAEKMTKEAAPLNRWLDVKKDLASTVIYLISDDSRYMTGTSIFVDGAQSLVRPRMRSYMHHHHHH
